US20120141373A1 (University of California, published 2012)
These are yes or no findings as the source states them, for the method shown. Some entries that bind do so weakly or less than the wild type.

Protein sequences, listed by entry. Tags and fused reporters are not part of them.
UniProt Q9Y5Y6: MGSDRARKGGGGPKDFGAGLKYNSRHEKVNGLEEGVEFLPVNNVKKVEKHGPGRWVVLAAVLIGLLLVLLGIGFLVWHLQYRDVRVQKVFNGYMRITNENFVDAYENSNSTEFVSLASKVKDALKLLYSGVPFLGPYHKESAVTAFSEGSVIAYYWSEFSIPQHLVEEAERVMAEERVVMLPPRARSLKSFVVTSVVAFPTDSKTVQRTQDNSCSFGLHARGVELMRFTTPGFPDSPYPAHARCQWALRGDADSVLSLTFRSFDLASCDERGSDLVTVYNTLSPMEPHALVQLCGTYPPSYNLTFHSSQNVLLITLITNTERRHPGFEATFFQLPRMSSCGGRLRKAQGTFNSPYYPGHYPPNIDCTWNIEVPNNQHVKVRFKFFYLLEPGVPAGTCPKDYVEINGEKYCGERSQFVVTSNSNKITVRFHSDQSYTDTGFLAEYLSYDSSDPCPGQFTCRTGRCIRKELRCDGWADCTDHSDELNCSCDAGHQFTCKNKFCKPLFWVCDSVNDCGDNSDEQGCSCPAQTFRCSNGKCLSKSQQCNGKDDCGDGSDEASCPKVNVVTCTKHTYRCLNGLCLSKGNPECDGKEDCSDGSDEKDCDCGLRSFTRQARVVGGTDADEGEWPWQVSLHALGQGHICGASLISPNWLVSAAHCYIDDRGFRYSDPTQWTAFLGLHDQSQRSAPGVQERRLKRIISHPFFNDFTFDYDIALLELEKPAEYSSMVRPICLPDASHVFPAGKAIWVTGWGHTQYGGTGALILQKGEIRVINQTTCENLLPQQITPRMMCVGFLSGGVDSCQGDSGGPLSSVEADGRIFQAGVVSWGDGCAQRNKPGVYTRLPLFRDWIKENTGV

Target: full-length MT-SP1 on human cancer cells (human) (UniProt Q9Y5Y6)
Assay: fluorescence microscopy of HT29 cells pre-incubated with recombinant HAI-1

binding: binds
B1: recombinant human HAI-1 (protein, UniProt O43278-2 36-449, looked up)
chain: GPPPAPPGLPAGADCLNSFTAGVPGFVLDTNASVSNGATFLESPTVRRGWDCVRACCTTQNCNLALVELQPDRGEDAIAACFLINCLYEQNFVCKFAPREGFINYLTREVYRSYRQLRTQGFGGSGIPKAWAGIDLKVQPQEPLVLKDVENTDWRLLRGDTDVRVERKDPNQVELWGLKEGTYLFQLTVTSSDHPEDTANVTVTVLSTKQTEDYCLASNKVGRCRGSFPRWYYDPTEQICKSFVYGGCLGNKNNYLREEECILACRGVQGPSMERRHPVCSGTCQPTQFRCSNGCCIDSFLECDDTPNCPDASDEAACEKYTSGFDELQRIHFPSDKGHCVDLPDTGLCKESIPRWYYNPFSEHCARFTYGGCYGNKNNFEEEQQCLESCRGISKKDVFGLRREIPIPSTGSVE
